Counter-ions that a name gives are not always drawn. ± gives the standard deviation of the averaged measurements. This is one part of the list. Part of the spread comes from offsets between plates or batches.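 A K-12 lab model strain is cultured statically in 96-well plates; biofilm is measured as the absorbance of crystal violet stain retained in the wells. Drugs counted as candidate specific biofilm blockers if they strongly reduced staining while slowing planktonic growth by under 70%.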
Each compound was assayed on Escherichia coli W3110 (assay: biofilm formation (crystal violet staining) relative to untreated control; higher = more biofilm). Details: 10 µM; 20-24 h; 30 °C; TB.
CCn1cc(C(=O)O)c(=O)c2cnc(N3CCCC3)nc21 [Piromidic acid] showed a biofilm formation of 66%. Compound O=S(=O)(O)CCS [Mesna] has a biofilm formation of 74%. CC(C)(C)NC[C@H](O)c1ccc(O)c(CO)c1 [Levalbuterol hydrochloride] was tested, and the biofilm formation was 77%. In the case of CCCCNC(=O)NS(=O)(=O)c1ccc(C)cc1 [Tolbutamide], the biofilm formation is reported as 82%. O=C(O)c1cc(-c2ccc(F)cc2F)ccc1O [Diflunisal] was tested, and the biofilm formation was 79%. CCOC(=O)OC(C)OC1=C(C(=O)Nc2ccccn2)N(C)S(=O)(=O)c2ccccc21 (configuration not stated) [Ampiroxicam] was tested, and the biofilm formation was 58%. CC(=O)[C@H]1CC[C@H]2[C@@H]3C[C@H](C)C4=CC(=O)CC[C@]4(C)[C@H]3[C@@H](O)C[C@]12C [Medrysone] gave a biofilm formation of 74%. Work on CCN1CC(CCN2CCOCC2)C(c2ccccc2)(c2ccccc2)C1=O (configuration not stated) [Doxapram hydrochloride] yielded a biofilm formation of 72%. With OCc1cc(C(O)CNCCCCCCOCCCCc2ccccc2)ccc1O (configuration not stated) [Salmeterol] the biofilm formation was 49%. Work on O=C(O)Cc1sc(-c2ccccc2)nc1-c1ccc(Cl)cc1 [Fentiazac] yielded a biofilm formation of 95%. CC(=O)OCC(=O)[C@@]12N=C(C)O[C@@H]1C[C@H]1[C@@H]3CCC4=CC(=O)C=C[C@]4(C)[C@H]3[C@@H](O)C[C@@]12C [Deflazacort] showed a biofilm formation of 67%. Compound Cc1nc2n(c(=O)c1CCN1CCC(c3noc4cc(F)ccc34)CC1)CCCC2 [Risperidone] has a biofilm formation of 81%. In the case of CNCCC(Oc1ccc(C(F)(F)F)cc1)c1ccccc1 (configuration not stated) [Fluoxetine hydrochloride], the biofilm formation is reported as 87%. For CC(=O)Nc1ccc(CC(=O)O)cc1 [Actarit], the biofilm formation was 77%. C[C@@H](CN1CC(=O)NC(=O)C1)N1CC(=O)NC(=O)C1 [Dexrazoxane hydrochloride] showed a biofilm formation of 82%. In the case of Clc1ccc(COC(Cn2ccnc2)c2ccc(Cl)cc2Cl)cc1 (configuration not stated) [Econazole nitrate], the biofilm formation is reported as 46%. Work on CO/N=C1\CN(c2nc3c(cc2F)c(=O)c(C(=O)O)cn3C2CC2)CC1CN (configuration not stated) [Gemifloxacin mesylate] yielded a biofilm formation of 12%. Clc1ccccc1C(c1ccccc1)(c1ccccc1)n1ccnc1 [Clotrimazole] was tested, and the biofilm formation was 56%. Compound C=CC[N@@+]12CC[C@@]34c5ccccc5N5/C=C6/[C@H]7C[C@H]8[C@@]9(CC[N@@+]8(CC=C)C/C7=C/CO)c7ccccc7N(/C=C(/[C@@H](C[C@@H]31)/C(=C\CO)C2)[C@H]54)[C@@H]69 [Alcuronium chloride] has a biofilm formation of 94%. In the case of CCCC(C(=O)OCCN(CC)CC)(c1ccccc1)c1ccccc1 [Proadifen hydrochloride], the biofilm formation is reported as 58%. In the case of O=P(O)(O)C(O)(Cc1cccnc1)P(=O)(O)O [Risedronic acid monohydrate], the biofilm formation is reported as 58%. In the case of CCN(CC)C(=O)N1CCN(C)CC1 [Diethylcarbamazine citrate], the biofilm formation is reported as 60%. In the case of CCN(CCCc1ccccc1)CCCc1ccccc1 [Alverine citrate salt], the biofilm formation is reported as 72%. Cc1c(O)cccc1C(=O)N[C@@H](CSc1ccccc1)[C@H](O)CN1C[C@H]2CCCC[C@H]2C[C@H]1C(=O)NC(C)(C)C [Nelfinavir mesylate] showed a biofilm formation of 71%. CCSc1ccc2c(c1)N(CCCN1CCN(C)CC1)c1ccccc1S2 [Thiethylperazine dimalate] showed a biofilm formation of 60%. In the case of CN(C)CCC(c1ccccc1)c1ccccn1 (configuration not stated) [Pheniramine maleate], the biofilm formation is reported as 85%. CCCCOc1ccc(CC(=O)NO)cc1 [Bufexamac] gave a biofilm formation of 67%. Work on CC(=O)OC(C)C[N+](C)(C)C (configuration not stated) [Methacholine chloride] yielded a biofilm formation of 53%. In the case of NC[C@H]1CC[C@H](C(=O)O)CC1 [Tranexamic acid], the biofilm formation is reported as 81%. Work on C=CCc1ccccc1OCC(O)CNC(C)C (configuration not stated) [Alprenolol hydrochloride] yielded a biofilm formation of 71%. In the case of Cc1ccc(O)c([C@H](CCN(C(C)C)C(C)C)c2ccccc2)c1 [Tolterodine tartrate], the biofilm formation is reported as 61%. In the case of O=C(O)c1cc(=O)c2c(OCC(O)COc3cccc4oc(C(=O)O)cc(=O)c34)cccc2o1 [Cromolyn disodium salt], the biofilm formation is reported as 75%. CCC(C)(C)c1ccc(CC(C)CN2C[C@@H](C)O[C@@H](C)C2)cc1 (some centres not stated) [Amorolfine hydrochloride] showed a biofilm formation of 78%. For CCOC(=O)c1ccc(C#Cc2ccc3c(c2)C(C)(C)CCS3)nc1 [Tazarotene], the biofilm formation was 89%. For CC[C@]12CCCN3CCc4c(n(c5ccccc45)[C@@](O)(C(=O)OC)C1)[C@@H]32 [Vincamine], the biofilm formation was 57%. With Nc1ccc(S(N)(=O)=O)cc1 [Sulfanilamide] the biofilm formation was 70%. CC(CCc1ccc(O)cc1)NCCc1ccc(O)c(O)c1 (configuration not stated) [Dobutamine hydrochloride] was tested, and the biofilm formation was 51%. CNCC[C@@H](Oc1cccc2ccccc12)c1cccs1 [(R)-Duloxetine hydrochloride] gave a biofilm formation of 81%. CC1=C(C(=O)O)N2C(=O)[C@@H](NC(=O)[C@H](N)c3ccc(O)cc3)[C@H]2SC1 [Cefadroxil] showed a biofilm formation of 79%. Work on C=CCN1CCCC1CNC(=O)c1cc2nn[nH]c2cc1OC (configuration not stated) [Alizapride hydrochloride] yielded a biofilm formation of 101%. For CC(C)(Oc1ccc(C2CC2(Cl)Cl)cc1)C(=O)O (configuration not stated) [Ciprofibrate], the biofilm formation was 58%. CC(=C(CCO)SSCC1CCCO1)N(C=O)Cc1cnc(C)nc1N (stereo in doubt) [Fursultiamine Hydrochloride] gave a biofilm formation of 82%. CCC(C)(CN(C)C)OC(=O)c1ccccc1 (configuration not stated) [Amyleine hydrochloride] gave a biofilm formation of 79%. With C=C(NC(=O)C(=C)NC(=O)c1csc(C2=N[C@@H]3c4csc(n4)[C@H]4NC(=O)c5csc(n5)[C@H]([C@](C)(O)[C@@H](C)O)NC(=O)[C@H]5CSC(=N5)/C(=C/C)NC(=O)[C@H]([C@@H](C)O)NC(=O)c5csc(n5)[C@]3(CC2)NC(=O)[C@H](C)NC(=O)C(=C)NC(=O)[C@H](C)NC(=O)[C@H]([C@@H](C)CC)N[C@@H]2C=Cc3c([C@H](C)O)cc(nc3[C@H]2O)C(=O)O[C@@H]4C)n1)C(N)=O [Thiostrepton] the biofilm formation was 54%. Cn1c(=O)c2c(ncn2CC(O)CO)n(C)c1=O (configuration not stated) [Diprophylline] was tested, and the biofilm formation was 60%. NC(=O)c1cccnc1 [Nicotinamide] gave a biofilm formation of 80%. Compound CNC1(C)C2CCC(C2)C1(C)C (configuration not stated) [Mecamylamine hydrochloride] has a biofilm formation of 62.5 ± 59%.

From the supplement of paper PMC7580552
